The text below walks through data of publication PMC8349660.

Amino acid sequences for entries named in this document (tags omitted).
UniProt Q9H6U6: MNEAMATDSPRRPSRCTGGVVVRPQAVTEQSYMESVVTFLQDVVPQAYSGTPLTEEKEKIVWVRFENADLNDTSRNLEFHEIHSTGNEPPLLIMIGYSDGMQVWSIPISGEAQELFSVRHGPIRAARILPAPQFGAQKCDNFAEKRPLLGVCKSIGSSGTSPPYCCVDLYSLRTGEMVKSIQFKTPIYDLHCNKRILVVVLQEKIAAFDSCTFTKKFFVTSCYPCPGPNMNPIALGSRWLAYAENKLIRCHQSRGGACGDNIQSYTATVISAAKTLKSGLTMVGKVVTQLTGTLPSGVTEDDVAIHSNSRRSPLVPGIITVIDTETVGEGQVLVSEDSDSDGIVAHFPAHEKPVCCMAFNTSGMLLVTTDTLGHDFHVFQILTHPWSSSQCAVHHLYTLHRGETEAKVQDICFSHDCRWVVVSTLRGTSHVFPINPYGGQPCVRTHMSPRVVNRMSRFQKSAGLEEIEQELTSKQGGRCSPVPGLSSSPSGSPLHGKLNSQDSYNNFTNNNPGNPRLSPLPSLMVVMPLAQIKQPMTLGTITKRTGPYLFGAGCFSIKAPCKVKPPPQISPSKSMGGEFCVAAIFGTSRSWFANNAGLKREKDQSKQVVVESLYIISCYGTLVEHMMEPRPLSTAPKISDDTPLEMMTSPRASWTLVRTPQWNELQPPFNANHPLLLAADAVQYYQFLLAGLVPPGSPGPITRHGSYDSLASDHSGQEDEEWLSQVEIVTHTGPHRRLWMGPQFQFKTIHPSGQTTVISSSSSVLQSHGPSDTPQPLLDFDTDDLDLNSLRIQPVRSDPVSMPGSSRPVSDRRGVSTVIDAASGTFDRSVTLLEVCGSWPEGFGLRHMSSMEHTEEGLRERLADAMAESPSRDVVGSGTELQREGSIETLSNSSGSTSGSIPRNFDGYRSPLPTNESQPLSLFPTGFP
UniProt P15924: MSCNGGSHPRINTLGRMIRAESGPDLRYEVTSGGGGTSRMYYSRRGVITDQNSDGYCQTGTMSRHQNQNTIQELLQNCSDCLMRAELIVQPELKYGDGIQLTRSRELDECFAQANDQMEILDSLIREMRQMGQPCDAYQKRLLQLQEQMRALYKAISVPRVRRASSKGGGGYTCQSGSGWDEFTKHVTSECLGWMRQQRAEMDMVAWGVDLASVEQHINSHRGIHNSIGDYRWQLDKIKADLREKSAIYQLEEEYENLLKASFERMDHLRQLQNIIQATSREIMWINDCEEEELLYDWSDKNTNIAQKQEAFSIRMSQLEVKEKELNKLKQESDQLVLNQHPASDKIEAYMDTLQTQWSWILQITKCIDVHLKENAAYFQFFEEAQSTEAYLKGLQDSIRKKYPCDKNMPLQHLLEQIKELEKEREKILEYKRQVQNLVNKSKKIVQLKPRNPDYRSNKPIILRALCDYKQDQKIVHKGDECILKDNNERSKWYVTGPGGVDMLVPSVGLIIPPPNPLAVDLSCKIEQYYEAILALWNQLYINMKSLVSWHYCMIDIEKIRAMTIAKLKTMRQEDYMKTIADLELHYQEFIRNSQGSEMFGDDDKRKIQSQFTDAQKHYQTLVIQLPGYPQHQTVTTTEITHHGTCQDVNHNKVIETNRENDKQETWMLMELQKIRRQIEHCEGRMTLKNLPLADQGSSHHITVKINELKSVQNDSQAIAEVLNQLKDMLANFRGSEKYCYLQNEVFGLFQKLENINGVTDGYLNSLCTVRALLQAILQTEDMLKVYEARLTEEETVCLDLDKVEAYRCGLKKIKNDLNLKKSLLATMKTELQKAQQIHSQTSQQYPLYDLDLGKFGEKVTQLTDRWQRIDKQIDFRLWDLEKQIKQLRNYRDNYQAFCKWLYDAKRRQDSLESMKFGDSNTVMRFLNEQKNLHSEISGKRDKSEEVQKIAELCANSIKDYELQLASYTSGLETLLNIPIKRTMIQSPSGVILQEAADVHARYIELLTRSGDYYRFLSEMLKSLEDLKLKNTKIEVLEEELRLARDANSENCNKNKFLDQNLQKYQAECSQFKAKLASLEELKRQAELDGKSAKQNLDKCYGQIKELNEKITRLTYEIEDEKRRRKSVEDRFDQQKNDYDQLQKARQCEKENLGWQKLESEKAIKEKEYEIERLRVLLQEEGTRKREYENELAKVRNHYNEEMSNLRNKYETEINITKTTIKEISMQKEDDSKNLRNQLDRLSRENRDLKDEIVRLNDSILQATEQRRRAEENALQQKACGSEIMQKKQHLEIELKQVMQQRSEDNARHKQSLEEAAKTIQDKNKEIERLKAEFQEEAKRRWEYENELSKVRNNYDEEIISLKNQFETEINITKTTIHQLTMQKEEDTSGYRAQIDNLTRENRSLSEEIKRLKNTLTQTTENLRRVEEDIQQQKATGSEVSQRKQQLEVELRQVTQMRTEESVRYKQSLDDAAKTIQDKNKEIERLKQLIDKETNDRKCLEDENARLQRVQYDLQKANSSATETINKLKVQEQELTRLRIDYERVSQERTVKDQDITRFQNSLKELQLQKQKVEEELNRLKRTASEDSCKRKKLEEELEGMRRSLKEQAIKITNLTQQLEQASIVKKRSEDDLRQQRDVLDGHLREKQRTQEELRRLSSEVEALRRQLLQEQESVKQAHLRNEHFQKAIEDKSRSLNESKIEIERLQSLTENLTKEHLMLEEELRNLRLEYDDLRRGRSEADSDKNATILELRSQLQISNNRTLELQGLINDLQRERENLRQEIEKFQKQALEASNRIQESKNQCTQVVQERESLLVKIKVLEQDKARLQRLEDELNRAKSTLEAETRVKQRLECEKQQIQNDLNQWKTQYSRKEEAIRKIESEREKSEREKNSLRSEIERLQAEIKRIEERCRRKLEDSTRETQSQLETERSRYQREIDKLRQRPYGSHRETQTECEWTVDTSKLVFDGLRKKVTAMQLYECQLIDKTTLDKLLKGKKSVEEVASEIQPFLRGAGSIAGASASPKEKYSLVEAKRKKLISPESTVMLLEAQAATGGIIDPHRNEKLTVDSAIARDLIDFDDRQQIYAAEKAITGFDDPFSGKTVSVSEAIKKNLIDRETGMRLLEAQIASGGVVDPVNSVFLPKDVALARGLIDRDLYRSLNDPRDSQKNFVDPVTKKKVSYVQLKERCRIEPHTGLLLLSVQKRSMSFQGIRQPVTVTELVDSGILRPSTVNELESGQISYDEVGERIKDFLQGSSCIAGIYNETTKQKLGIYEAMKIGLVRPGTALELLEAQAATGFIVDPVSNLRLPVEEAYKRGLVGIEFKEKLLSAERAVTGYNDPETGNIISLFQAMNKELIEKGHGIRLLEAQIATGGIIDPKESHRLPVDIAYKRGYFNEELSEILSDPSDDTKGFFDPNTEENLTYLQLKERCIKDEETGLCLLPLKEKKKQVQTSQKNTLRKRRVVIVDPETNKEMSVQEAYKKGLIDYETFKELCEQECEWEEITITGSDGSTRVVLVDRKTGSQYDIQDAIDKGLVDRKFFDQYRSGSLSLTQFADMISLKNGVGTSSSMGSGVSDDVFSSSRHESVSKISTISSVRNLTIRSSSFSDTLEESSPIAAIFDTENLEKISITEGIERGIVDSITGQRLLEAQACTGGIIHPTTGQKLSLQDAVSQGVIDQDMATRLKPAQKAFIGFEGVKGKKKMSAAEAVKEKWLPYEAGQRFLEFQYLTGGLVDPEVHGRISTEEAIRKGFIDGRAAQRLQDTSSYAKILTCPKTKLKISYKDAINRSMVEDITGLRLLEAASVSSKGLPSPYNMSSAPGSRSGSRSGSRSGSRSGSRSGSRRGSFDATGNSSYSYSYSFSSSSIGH
UniProt P52732: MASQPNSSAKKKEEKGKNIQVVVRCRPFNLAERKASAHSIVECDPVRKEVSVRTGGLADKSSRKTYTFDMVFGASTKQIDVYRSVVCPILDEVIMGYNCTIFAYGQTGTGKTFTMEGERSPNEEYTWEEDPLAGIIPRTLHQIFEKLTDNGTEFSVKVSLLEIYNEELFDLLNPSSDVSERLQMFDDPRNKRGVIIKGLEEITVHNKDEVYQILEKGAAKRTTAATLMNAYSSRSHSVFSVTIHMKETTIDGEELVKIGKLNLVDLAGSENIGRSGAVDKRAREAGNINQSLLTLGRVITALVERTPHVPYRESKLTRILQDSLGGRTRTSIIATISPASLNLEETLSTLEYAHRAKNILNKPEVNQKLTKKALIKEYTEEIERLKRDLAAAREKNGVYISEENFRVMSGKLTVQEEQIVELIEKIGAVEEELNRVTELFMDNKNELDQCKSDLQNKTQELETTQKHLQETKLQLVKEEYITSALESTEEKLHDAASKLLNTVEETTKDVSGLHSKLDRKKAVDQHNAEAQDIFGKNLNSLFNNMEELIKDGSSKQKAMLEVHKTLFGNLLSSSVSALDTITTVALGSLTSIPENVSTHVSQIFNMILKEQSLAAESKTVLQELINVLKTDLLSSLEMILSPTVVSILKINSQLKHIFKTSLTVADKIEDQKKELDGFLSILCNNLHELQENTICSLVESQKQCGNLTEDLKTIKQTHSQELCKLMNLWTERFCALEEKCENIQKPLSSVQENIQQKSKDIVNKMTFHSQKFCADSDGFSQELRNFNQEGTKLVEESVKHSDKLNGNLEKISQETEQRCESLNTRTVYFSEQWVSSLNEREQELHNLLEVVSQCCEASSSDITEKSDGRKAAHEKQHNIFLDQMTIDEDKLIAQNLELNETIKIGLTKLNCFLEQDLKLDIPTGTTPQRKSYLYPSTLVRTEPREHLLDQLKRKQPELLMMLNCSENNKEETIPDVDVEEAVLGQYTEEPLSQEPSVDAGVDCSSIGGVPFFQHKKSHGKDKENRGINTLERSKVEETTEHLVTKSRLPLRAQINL
UniProt Q00987: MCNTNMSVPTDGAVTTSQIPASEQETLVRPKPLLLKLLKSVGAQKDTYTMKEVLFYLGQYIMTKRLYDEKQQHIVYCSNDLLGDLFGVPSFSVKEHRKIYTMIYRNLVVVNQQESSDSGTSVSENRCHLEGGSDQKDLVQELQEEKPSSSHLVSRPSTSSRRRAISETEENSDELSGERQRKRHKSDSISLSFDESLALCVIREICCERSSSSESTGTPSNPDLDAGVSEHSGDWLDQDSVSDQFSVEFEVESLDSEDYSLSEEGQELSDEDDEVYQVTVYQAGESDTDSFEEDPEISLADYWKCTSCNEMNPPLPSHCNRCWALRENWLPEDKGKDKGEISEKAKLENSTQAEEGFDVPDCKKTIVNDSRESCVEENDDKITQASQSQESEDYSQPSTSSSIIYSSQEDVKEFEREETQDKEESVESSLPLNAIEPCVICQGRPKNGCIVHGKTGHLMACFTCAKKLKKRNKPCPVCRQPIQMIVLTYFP
UniProt P08670: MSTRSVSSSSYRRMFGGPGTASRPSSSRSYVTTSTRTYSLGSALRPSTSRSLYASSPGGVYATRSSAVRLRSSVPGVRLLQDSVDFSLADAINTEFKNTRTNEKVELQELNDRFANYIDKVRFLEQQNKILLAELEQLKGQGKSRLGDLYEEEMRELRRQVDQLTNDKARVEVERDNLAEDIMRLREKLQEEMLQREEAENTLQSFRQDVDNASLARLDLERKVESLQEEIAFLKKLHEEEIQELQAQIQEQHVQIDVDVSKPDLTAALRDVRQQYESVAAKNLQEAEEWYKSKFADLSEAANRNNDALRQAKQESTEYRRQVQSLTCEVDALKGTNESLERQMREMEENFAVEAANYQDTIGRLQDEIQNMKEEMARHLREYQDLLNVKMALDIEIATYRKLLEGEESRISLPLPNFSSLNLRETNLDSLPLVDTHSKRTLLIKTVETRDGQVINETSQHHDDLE

The assay addresses FLAG-tagged BCAS3 (breast cancer-amplified sequence 3) (human) (UniProt Q9H6U6). As to the kind of experiment: affinity purification with mass spectrometry; FLAG-BCAS3 from HEK 293T cellular extracts bound to anti-FLAG M2 affinity gel, washed with cold lysis buffer, eluted with FLAG peptide 0.2 mg/mL, silver-stained bands cut, LC-MS/MS.

Results are given in words; binding and its absence hold for the method and conditions named. Binding seen in cells or lysates may run through a third protein. These calls come from enrichment with a bait or labelling near it, and not all partners need be listed. No binding means not detected with the bait.

As to DSP (from UniProt P15924 1-2871), the binding result is on record as “binds”.

Take KIF11 (from UniProt P52732 1-1056): the binding entry is reported as “binds”.

With MDM2 (from UniProt Q00987 1-491), the binding result is listed as “no binding”.

In the case of p53 (from UniProt P04637 1-393), the binding result is listed as “binds”.

Consider vimentin (from UniProt P08670 1-466), for which the binding result was “binds”.

B1: BAG5 (protein, UniProt Q9UL15 1-447)
chain: MDMGNQHPSISRLQEIQKEVKSVEQQVIGFSGLSDDKNYKKLERILTKQLFEIDSVDTEGKGDIQQARKRAAQETERLLKELEQNANHPHRIEIQNIFEEAQSLVREKIVPFYNGGNCVTDEFEEGIQDIILRLTHVKTGGKISLRKARYHTLTKICAVQEIIEDCMKKQPSLPLSEDAHPSVAKINFVMCEVNKARGVLIALLMGVNNNETCRHLSCVLSGLIADLDALDVCGRTEIRNYRREVVEDINKLLKYLDLEEEADTTKAFDLRQNHSILKIEKVLKRMREIKNELLQAQNPSELYLSSKTELQGLIGQLDEVSLEKNPCIREARRRAVIEVQTLITYIDLKEALEKRKLFACEEHPSHKAVWNVLGNLSEIQGEVLSFDGNRTDKNYIRLEELLTKQLLALDAVDPQGEEKCKAARKQAVRLAQNILSYLDLKSDEWEY
Turning to B1, the binding result is reported as “binds”.
